Data reported in patent publication US20070048738A1, “Methods and compositions for diagnosis, staging and prognosis of prostate cancer” (Mayo Foundation for Medical Education and Research, priority 2003, published 2007).

Test system: prostate cancer and adjacent benign tissues
Test: Gene expression profiling of prostate tissues with oligonucleotide arrays U133A and U133B (Example II, TABLE 2)
Parameters: species or system human

Substance: IGF1
- Fold Change Met-Nrml (mRNA expression of the gene, metastatic prostate cancer relative to adjacent benign tissue, U133A and U133B arrays): 0.6048

Substance: PRIMA1
- Fold Change Gs-Nrml (fold-change in gene expression, Gleason grade 6 vs adjacent benign tissues (second Gs-Nrml column), U133A and U133B probe set average): 0.8143
- Fold Change Gs-Nrml (fold-change in gene expression, Gleason grade 9 vs adjacent benign tissues (first Gs-Nrml column), U133A and U133B probe set average): 0.7741
- Fold Change Met-Nrml (fold-change in gene expression, Metastatic vs adjacent benign tissues, U133A and U133B probe set average): 0.7443
